Source: paper PMC4822050, “Hemi-methylated DNA opens a closed conformation of UHRF1 to facilitate its histone recognition” (Nature Communications, 2016)

B1: SpacerK648D: mutation K648D of the Spacer (protein)
chain: PGPWTKEGKDRIKKLGLTMQYPEGYLEALANREREKENSKREEEEQQEGGFASPRTGKGKWDRKSAGGGPSRAGSPRRTSKKTKVEPY
modifications: left off: GST, end not stated, cleaved
notes: mutation K648D of the Spacer
B2: SpacerS651D: mutation S651D of the Spacer (protein)
chain: PGPWTKEGKDRIKKLGLTMQYPEGYLEALANREREKENSKREEEEQQEGGFASPRTGKGKWKRKDAGGGPSRAGSPRRTSKKTKVEPY
modifications: left off: GST, end not stated, cleaved
notes: mutation S651D of the Spacer
B3: Spacer: C-terminal spacer region of human UHRF1 (residues 587–674) (protein)
chain: PGPWTKEGKDRIKKLGLTMQYPEGYLEALANREREKENSKREEEEQQEGGFASPRTGKGKWKRKSAGGGPSRAGSPRRTSKKTKVEPY
modifications: left off: GST, end not stated, cleaved
B4: SpacerR649A: mutation R649A of the Spacer (protein)
chain: PGPWTKEGKDRIKKLGLTMQYPEGYLEALANREREKENSKREEEEQQEGGFASPRTGKGKWKAKSAGGGPSRAGSPRRTSKKTKVEPY
modifications: left off: GST, end not stated, cleaved
notes: mutation R649A of the Spacer
B5: TTD–PHD: human UHRF1 residues 134–366 (protein)
chain: LYKVNEYVDARDTNMGAWFEAQVVRVTRKAPSRDEPCSSTSRPALEEDVIYHVKYDDYPENGVVQMNSRDVRARARTIIKWQDLEVGQVVMLNYNPDNPKERGFWYDAEISRKRETRTARELYANVVLGDDSLNDCRIIFVDEVFKIERPGEGSPMVDNPMRRKSGPSCKHCKDDVNRLCRVCACHLCGGRQDPDKQLMCDECDMAFHIYCLDPPLSSVPSEDEWYCPECRND
modifications: left off: GST, end not stated, cleaved
B6: UHRF1∆627-674: spacer deletion mutant of UHRF1 (residues 627–674 deleted) (protein)
chain: MWIQVRTMDGRQTHTVDSLSRLTKVEELRRKIQELFHVEPGLQRLFYRGKQMEDGHTLFDYEVRLNDTIQLLVRQSLVLPHSTKERDSELSDTDSGCCLGQSESDKSSTHGEAAAETDSRPADEDMWDETELGLYKVNEYVDARDTNMGAWFEAQVVRVTRKAPSRDEPCSSTSRPALEEDVIYHVKYDDYPENGVVQMNSRDVRARARTIIKWQDLEVGQVVMLNYNPDNPKERGFWYDAEISRKRETRTARELYANVVLGDDSLNDCRIIFVDEVFKIERPGEGSPMVDNPMRRKSGPSCKHCKDDVNRLCRVCACHLCGGRQDPDKQLMCDECDMAFHIYCLDPPLSSVPSEDEWYCPECRNDASEVVLAGERLRESKKKAKMASATSSSQRDWGKGMACVGRTKECTIVPSNHYGPIPGIPVGTMWRFRVQVSESGVHRPHVAGIHGRSNDGAYSLVLAGGYEDDVDHGNFFTYTGSGGRDLSGNKRTAEQSCDQKLTNTNRALALNCFAPINDQEGAEAKDWRSGKPVRVVRNVKGGKNSKYAPAEGNRYDGIYKVVKYWPEKGKSGFLVWRYLLRRDDDEPGPWTKEGKDRIKKLGLTMQYPEGYLEALANREREKENSKSLTAQQSSLIREDKSNAKLWNEVLASLKDRPASGSPFQLFLSKVEETFQCICCQELVFRPITTVCQHNVCKDCLDRSFRAQVFSCPACRYDLGRSYAMQVNQPLQTVLNQLFPGYGNGR
modifications: left off: GST, end not stated, cleaved
B7: UHRF1D334A&∆627-674: UHRF1 with mutation D334A and deletion of residues 627–674 (protein)
chain: MWIQVRTMDGRQTHTVDSLSRLTKVEELRRKIQELFHVEPGLQRLFYRGKQMEDGHTLFDYEVRLNDTIQLLVRQSLVLPHSTKERDSELSDTDSGCCLGQSESDKSSTHGEAAAETDSRPADEDMWDETELGLYKVNEYVDARDTNMGAWFEAQVVRVTRKAPSRDEPCSSTSRPALEEDVIYHVKYDDYPENGVVQMNSRDVRARARTIIKWQDLEVGQVVMLNYNPDNPKERGFWYDAEISRKRETRTARELYANVVLGDDSLNDCRIIFVDEVFKIERPGEGSPMVDNPMRRKSGPSCKHCKDDVNRLCRVCACHLCGGRQDPDKQLMCAECDMAFHIYCLDPPLSSVPSEDEWYCPECRNDASEVVLAGERLRESKKKAKMASATSSSQRDWGKGMACVGRTKECTIVPSNHYGPIPGIPVGTMWRFRVQVSESGVHRPHVAGIHGRSNDGAYSLVLAGGYEDDVDHGNFFTYTGSGGRDLSGNKRTAEQSCDQKLTNTNRALALNCFAPINDQEGAEAKDWRSGKPVRVVRNVKGGKNSKYAPAEGNRYDGIYKVVKYWPEKGKSGFLVWRYLLRRDDDEPGPWTKEGKDRIKKLGLTMQYPEGYLEALANREREKENSKSLTAQQSSLIREDKSNAKLWNEVLASLKDRPASGSPFQLFLSKVEETFQCICCQELVFRPITTVCQHNVCKDCLDRSFRAQVFSCPACRYDLGRSYAMQVNQPLQTVLNQLFPGYGNGR
modifications: left off: GST, end not stated, cleaved
B8: TTD: tandem Tudor domain of human UHRF1 (residues 134–285) (protein, UniProt Q96T88 134-285, looked up, fragment)
chain: LYKVNEYVDARDTNMGAWFEAQVVRVTRKAPSRDEPCSSTSRPALEEDVIYHVKYDDYPENGVVQMNSRDVRARARTIIKWQDLEVGQVVMLNYNPDNPKERGFWYDAEISRKRETRTARELYANVVLGDDSLNDCRIIFVDEVFKIERPGE
modifications: tandem Tudor domain
B9: SRA–Spacer: human UHRF1 residues 414–674 (protein)
chain: PSNHYGPIPGIPVGTMWRFRVQVSESGVHRPHVAGIHGRSNDGAYSLVLAGGYEDDVDHGNFFTYTGSGGRDLSGNKRTAEQSCDQKLTNTNRALALNCFAPINDQEGAEAKDWRSGKPVRVVRNVKGGKNSKYAPAEGNRYDGIYKVVKYWPEKGKSGFLVWRYLLRRDDDEPGPWTKEGKDRIKKLGLTMQYPEGYLEALANREREKENSKREEEEQQEGGFASPRTGKGKWKRKSAGGGPSRAGSPRRTSKKTKVEPY
modifications: left off: GST, end not stated, cleaved

Tests used:
Type in all cases: binding
H3K9me3 peptide (1–17) = assay: ITC, H3K9me3 peptide (1-17) titrated into UHRF1 proteins; details: for N: ITC stoichiometry; for N / ΔH / ΔS: H3K9me3 in syringe, named protein in cell; for ΔH / ΔS: ITC
Method: (§1) For competition ITC experiments: the indicated proteins were pre-incubated with competitive peptide, protein or hm-DNA (at 1:2 molar ratio if not specified) for 10 min followed by ITC measurements as described above. Proteins, DNA and peptides were prepared within ITC buffer containing 10 mM HEPES, pH 8.0, 100 mM NaCl. The data were fitted by software Origin 7.0. All ITC results were summarized in Supplementary Table 2 and raw data were shown in Supplementary Fig. 9.

hm-DNA (12 bp) = assay: ITC, hm-DNA titrated into UHRF1 domains; details: hm-DNA in syringe
Method: as §1

RFTS^DNMT1 = assay: ITC, RFTS of DNMT1 with SRA or SRA-Spacer
Method: as §1

Row | Molecule | N of H3K9me3 binding to the TTD in the presence of the named protein (H3K9me3 peptide (1–17); competition ITC, 1:2) | ΔH of H3K9me3 binding to the TTD in the presence of the named protein (H3K9me3 peptide (1–17); competition ITC, 1:2) [kcal/mol] | ΔS of H3K9me3 binding to the TTD in the presence of the named protein (H3K9me3 peptide (1–17); competition ITC, 1:2) [cal/mol/deg] | N (H3K9me3 peptide (1–17)) | ΔH (H3K9me3 peptide (1–17)) | ΔS (H3K9me3 peptide (1–17)) [cal/mol/deg] | further results
1 | B1 | 1.17±0.0184 | -5.049 ± 0.1182 | 6.41 |  |  |  | 
2 | B2 | 1.21±0.00447 | -6.184 ± 0.03211 | 5.73 |  |  |  | 
3 | B3 |  |  |  |  |  |  | N of H3K9me3 binding to TTD–PHD in the presence of the Spacer (H3K9me3 peptide (1–17); competition ITC, 1:2): 0.993±0.00481; ΔH of H3K9me3 binding to TTD–PHD in the presence of the Spacer (H3K9me3 peptide (1–17); competition ITC, 1:2): -8.455 ± 0.05598 kcal/mol; ΔS of H3K9me3 binding to TTD–PHD in the presence of the Spacer (H3K9me3 peptide (1–17); competition ITC, 1:2): -2.54 cal/mol/deg
4 | B4 | 1.13±0.0218 | -6.3 ± 0.1667 | 3.79 |  |  |  | 
5 | B5 |  |  |  | 0.990±0.00526 | -1.260E4±95.03 cal/mol | -12.0 | 
6 | B6 |  |  |  | 0.988±0.0133 | -1.004E4±185.3 cal/mol | -7.32 | 
7 | B7 |  |  |  | 0.979±0.02 | -6.173 ± 0.204 kcal/mol | 1.96 | 
8 | B8 |  |  |  | 1.28±0.00794 | -8.136 ± 0.07152 kcal/mol | -0.455 | 
9 | B9 |  |  |  |  |  |  | N (hm-DNA (12 bp); ITC stoichiometry): 1.15±0.0175; ΔH (hm-DNA (12 bp); ITC): -4.355 ± 0.09057 kcal/mol; ΔS (hm-DNA (12 bp); ITC): 11.4 cal/mol/deg; ΔH (RFTS^DNMT1; ITC): -4.721 ± 0.317 kcal/mol; ΔS (RFTS^DNMT1; ITC): 7.43 cal/mol/deg; N (RFTS^DNMT1; ITC stoichiometry): 0.749±0.0361
